# Reference: PubChem BioAssay AID1259405 (NCATS, 2018)
# Purpose: 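Knock-downs that lift recombinant protein yield in hamster ovary cells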 (primary screen)
# Cells: Chinese hamster CHO-K1 ovary cells with stable secreted eGFP expression
# Knock-down reagent: single siRNA against mouse genes, 0.8 pmol siRNA per well (2 µl of 400 nM stock)
# Time to read-out: 3 days
# Measured: 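Percent of the per-plate non-targeting control median for intracellular GFP per well by laser scanning cytometry and for cell viability by ATP luminescence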
# Reading the numbers: GFP, % of control: higher = more GFP per well, higher productivity; viability (ATP), % of control: higher = more viable cells (more ATP)
# Hit rule: 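a knock-down is called active if GFP reaches 120% or more of non-targeting control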
# Here is one part, drawn at random, of about 50,000 reagents. In the full data, about 4,000 (8%) were called active. 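Mouse siRNA library applied to hamster cells; one well for each siRNA.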 A number with no mark means an inactive call. Reagents against one gene are numbered here.
gene,siRNA no.,"GFP, % of control","viability (ATP), % of control"
Vmn1r212 (vomeronasal 1 receptor 212),1,50.2,37.8
Vmn1r212 (vomeronasal 1 receptor 212),2,76.1,69.2
Vmn1r212 (vomeronasal 1 receptor 212),3,80.4,98.6
Eif2s3y,1,89.1,47.2
Eif2s3y,2,181 (active),59.1
Eif2s3y,3,67.1,43.9
Ebi3 (Epstein-Barr virus induced gene 3),1,105,79.8
Ebi3 (Epstein-Barr virus induced gene 3),2,80,92.6
Ebi3 (Epstein-Barr virus induced gene 3),3,97.8,79.9
Adcy10 (adenylate cyclase 10),1,62.4,113
Adcy10 (adenylate cyclase 10),2,124 (active),70.8
Lmbr1 (limb region 1),1,113,94.4
Lmbr1 (limb region 1),2,84.2,60.1
Lmbr1 (limb region 1),3,65,79.8
Nav3 (neuron navigator 3),1,52.6,62.7
Nav3 (neuron navigator 3),2,63.8,84.4
Nav3 (neuron navigator 3),3,97.7,75.2
Ttbk1 (tau tubulin kinase 1),1,104,93.4
Ttbk1 (tau tubulin kinase 1),2,82.2,54.3
Ttbk1 (tau tubulin kinase 1),3,97.2,97.6
Agpat1 (1-acylglycerol-3-phosphate O-acyltransferase 1),1,103,64.1
Agpat1 (1-acylglycerol-3-phosphate O-acyltransferase 1),2,145 (active),136
Agpat1 (1-acylglycerol-3-phosphate O-acyltransferase 1),3,115,99
"Coro1c (coronin, actin binding protein 1C)",1,72.8,64.2
"Coro1c (coronin, actin binding protein 1C)",2,78.3,75.3
"Coro1c (coronin, actin binding protein 1C)",3,78.5,58.8
Vmn1r195 (vomeronasal 1 receptor 195),1,77.8,71.3
Vmn1r195 (vomeronasal 1 receptor 195),2,91.6,87.5
Vmn1r195 (vomeronasal 1 receptor 195),3,98.7,86.9
"Fcer2a (Fc receptor, IgE, low affinity II, alpha polypeptide)",1,114,76.2
"Fcer2a (Fc receptor, IgE, low affinity II, alpha polypeptide)",2,139 (active),81
"Fcer2a (Fc receptor, IgE, low affinity II, alpha polypeptide)",3,118,97.7
Gfpt1 (glutamine fructose-6-phosphate transaminase 1),1,84.8,99.7
Gfpt1 (glutamine fructose-6-phosphate transaminase 1),2,64.3,71.9
Gfpt1 (glutamine fructose-6-phosphate transaminase 1),3,66.5,68
"Tnfrsf1b (tumor necrosis factor receptor superfamily, member 1b)",1,62.9,58.7
"Tnfrsf1b (tumor necrosis factor receptor superfamily, member 1b)",2,62.3,52.2
"Tnfrsf1b (tumor necrosis factor receptor superfamily, member 1b)",3,50.9,50.8
Synpr (synaptoporin),1,90.1,114
Synpr (synaptoporin),2,84.1,79.3
Gzf1 (GDNF-inducible zinc finger protein 1),1,26.9,40.2
Gzf1 (GDNF-inducible zinc finger protein 1),2,46.6,60.5
Gzf1 (GDNF-inducible zinc finger protein 1),3,56.8,79.9
Cd6 (CD6 antigen),1,96.8,68.1
Cd6 (CD6 antigen),2,114,62.7
Cd6 (CD6 antigen),3,88.5,68.9
Elk4 (ETS transcription factor ELK4),1,68.3,52.7
Elk4 (ETS transcription factor ELK4),2,122 (active),85.3
Elk4 (ETS transcription factor ELK4),3,84.9,98.7
Acot7 (acyl-CoA thioesterase 7),1,22.7,26.6
Acot7 (acyl-CoA thioesterase 7),2,76.3,101
Acot7 (acyl-CoA thioesterase 7),3,51.8,61.2
Or2l5 (olfactory receptor family 2 subfamily L member 5),1,81.9,85.6
Or2l5 (olfactory receptor family 2 subfamily L member 5),2,71.9,76.6
Or2l5 (olfactory receptor family 2 subfamily L member 5),3,109,44.9
Rigi (RNA sensor RIG-I),1,55,54.9
Rigi (RNA sensor RIG-I),2,79.1,40.2
Rigi (RNA sensor RIG-I),3,149 (active),176
Ttyh2 (tweety family member 2),1,66,33.8
Ttyh2 (tweety family member 2),2,122 (active),67.1
Ttyh2 (tweety family member 2),3,114,103
Retreg2 (reticulophagy regulator family member 2),1,51.8,59.5
Retreg2 (reticulophagy regulator family member 2),2,82.5,89.5
Retreg2 (reticulophagy regulator family member 2),3,114,146
Rnf144b (ring finger protein 144B),1,121 (active),73.6
Rnf144b (ring finger protein 144B),2,48.8,63.8
Rnf144b (ring finger protein 144B),3,89.7,128
Erf (Ets2 repressor factor),1,117,66.7
Erf (Ets2 repressor factor),2,93.1,71.2
Erf (Ets2 repressor factor),3,106,118
Irf4 (interferon regulatory factor 4),1,72.7,70
Irf4 (interferon regulatory factor 4),2,65.6,67.5
Irf4 (interferon regulatory factor 4),3,63.4,82.1
Pck2 (phosphoenolpyruvate carboxykinase 2 (mitochondrial)),1,101,73.6
Pck2 (phosphoenolpyruvate carboxykinase 2 (mitochondrial)),2,52.8,53.5
Pck2 (phosphoenolpyruvate carboxykinase 2 (mitochondrial)),3,84,87.8
Cbln2 (cerebellin 2 precursor protein),1,35.1,45.3
Cbln2 (cerebellin 2 precursor protein),2,32.2,36.9
Cbln2 (cerebellin 2 precursor protein),3,85.4,67.1
Ssh3 (slingshot protein phosphatase 3),1,95.8,50.5
Ssh3 (slingshot protein phosphatase 3),2,85.1,65.4
Ssh3 (slingshot protein phosphatase 3),3,100,68.4
"Abca4 (ATP-binding cassette, sub-family A member 4)",1,120,94.6
"Abca4 (ATP-binding cassette, sub-family A member 4)",2,42.3,52.8
"Abca4 (ATP-binding cassette, sub-family A member 4)",3,162 (active),89.3
"Abca4 (ATP-binding cassette, sub-family A member 4)",4,162 (active),99.6
"Abca4 (ATP-binding cassette, sub-family A member 4)",5,177 (active),102
"Abca4 (ATP-binding cassette, sub-family A member 4)",6,112,101

As entered above.
Entry for Coro1c (coronin, actin binding protein 1C) #1 under “GFP, % of control”: 72.8
Value for Fcer2a (Fc receptor, IgE, low affinity II, alpha polypeptide) #2 in “viability (ATP), % of control”: 81 (active)
Gzf1 (GDNF-inducible zinc finger protein 1) #2, viability (ATP), % of control: 60.5
Entry of Lmbr1 (limb region 1) #3 in “viability (ATP), % of control”: 79.8
Entry of Rnf144b (ring finger protein 144B) #2 under “viability (ATP), % of control”: 63.8
Under “viability (ATP), % of control”, Adcy10 (adenylate cyclase 10) #2 shows 70.8 (active)
